For this experiment, the target named is T1, S100a9 (rat (endogenous in H9c2)) (UniProt P50116).
T1 sequence: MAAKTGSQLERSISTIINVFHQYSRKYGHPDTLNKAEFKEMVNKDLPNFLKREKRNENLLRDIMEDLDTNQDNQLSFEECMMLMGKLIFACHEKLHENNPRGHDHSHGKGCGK
Nature of the experiment: co-IP; protein A/G magnetic beads with S100a9 antibody, HIF-1α antibody or rabbit IgG, incubated with protein lysates overnight; cardiomyocytes (H9c2) untreated or treated with β1-AAs for 24 h; detected by western blot. (In general: Immunoblotting shows a protein as a band on a membrane.)

The chains behind the UniProt entries cited, without tags or fusion partners.
UniProt O35800: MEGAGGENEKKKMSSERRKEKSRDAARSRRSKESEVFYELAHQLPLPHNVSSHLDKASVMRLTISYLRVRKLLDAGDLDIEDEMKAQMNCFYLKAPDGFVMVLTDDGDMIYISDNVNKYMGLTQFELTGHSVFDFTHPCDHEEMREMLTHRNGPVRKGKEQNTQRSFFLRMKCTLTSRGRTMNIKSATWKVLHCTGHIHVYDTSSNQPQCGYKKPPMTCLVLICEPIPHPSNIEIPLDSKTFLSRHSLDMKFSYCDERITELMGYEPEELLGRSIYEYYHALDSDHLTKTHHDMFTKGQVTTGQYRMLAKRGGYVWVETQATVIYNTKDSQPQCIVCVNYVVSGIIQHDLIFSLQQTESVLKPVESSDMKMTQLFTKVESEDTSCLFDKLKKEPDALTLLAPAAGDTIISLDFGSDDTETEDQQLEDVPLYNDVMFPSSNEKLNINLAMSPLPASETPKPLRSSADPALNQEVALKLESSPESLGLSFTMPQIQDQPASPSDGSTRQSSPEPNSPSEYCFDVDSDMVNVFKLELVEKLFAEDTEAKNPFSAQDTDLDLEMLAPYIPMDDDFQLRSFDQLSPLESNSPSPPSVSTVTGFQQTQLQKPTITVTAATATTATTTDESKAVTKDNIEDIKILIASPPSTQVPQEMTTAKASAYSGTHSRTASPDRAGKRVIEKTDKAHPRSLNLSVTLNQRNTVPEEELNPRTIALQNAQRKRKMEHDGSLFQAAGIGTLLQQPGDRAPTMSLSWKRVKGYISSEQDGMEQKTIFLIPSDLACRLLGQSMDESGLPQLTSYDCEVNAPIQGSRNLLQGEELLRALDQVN

No constants are given. Whether binding was seen depends on the method and setting. In cells and extracts the contact can be indirect. Some results given as binding are weak or reduced against the parent protein; the word gives no strength.

This passage reports binding results from paper PMC10506287.

Take “hypoxia inducible factor-1α (from UniProt O35800 1-825)”: the binding entry is reported as “binds”.
